# Experimental data published in doi:10.1101/2023.09.13.557610.
# Results are given in words; binding and its absence hold for the method and conditions named. In cells and extracts the contact can be indirect. A result given as binding can be weak or reduced; the word gives no strength. For some of these results: Where a sequence is shown, tags or fusion partners need not be part of it.
# T1: coiled-coil domain-containing protein 47 (CCDC47), endogenous (human (endogenous in HEK293)) (UniProt Q96A33)
# T1 sequence: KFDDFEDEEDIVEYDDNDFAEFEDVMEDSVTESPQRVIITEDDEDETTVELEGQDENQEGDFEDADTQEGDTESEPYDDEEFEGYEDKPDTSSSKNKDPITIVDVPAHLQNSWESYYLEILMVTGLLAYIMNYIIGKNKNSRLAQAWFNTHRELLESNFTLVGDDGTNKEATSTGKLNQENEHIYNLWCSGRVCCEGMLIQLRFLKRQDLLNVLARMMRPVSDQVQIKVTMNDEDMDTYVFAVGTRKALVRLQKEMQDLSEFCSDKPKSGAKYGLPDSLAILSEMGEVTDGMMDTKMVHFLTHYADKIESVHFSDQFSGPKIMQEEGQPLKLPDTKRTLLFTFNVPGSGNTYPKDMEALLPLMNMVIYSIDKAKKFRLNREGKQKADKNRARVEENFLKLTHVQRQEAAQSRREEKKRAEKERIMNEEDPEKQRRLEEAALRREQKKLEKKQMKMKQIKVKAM
# T2: DsRed2-CCDC47TM^MYC (human) (UniProt Q96A33)
# T2 sequence: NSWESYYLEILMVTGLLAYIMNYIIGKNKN
# T3: DsRed2-CCDC47_(ΔG+ΔCC)^MYC (human) (UniProt Q96A33)
# T3 sequence: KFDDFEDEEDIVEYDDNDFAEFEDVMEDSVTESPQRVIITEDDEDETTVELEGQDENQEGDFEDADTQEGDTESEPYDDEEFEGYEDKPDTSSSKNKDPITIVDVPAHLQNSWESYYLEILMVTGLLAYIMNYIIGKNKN
# T4: DsRed2-CCDC47_(full)^MYC (human) (UniProt Q96A33)
# T4 sequence: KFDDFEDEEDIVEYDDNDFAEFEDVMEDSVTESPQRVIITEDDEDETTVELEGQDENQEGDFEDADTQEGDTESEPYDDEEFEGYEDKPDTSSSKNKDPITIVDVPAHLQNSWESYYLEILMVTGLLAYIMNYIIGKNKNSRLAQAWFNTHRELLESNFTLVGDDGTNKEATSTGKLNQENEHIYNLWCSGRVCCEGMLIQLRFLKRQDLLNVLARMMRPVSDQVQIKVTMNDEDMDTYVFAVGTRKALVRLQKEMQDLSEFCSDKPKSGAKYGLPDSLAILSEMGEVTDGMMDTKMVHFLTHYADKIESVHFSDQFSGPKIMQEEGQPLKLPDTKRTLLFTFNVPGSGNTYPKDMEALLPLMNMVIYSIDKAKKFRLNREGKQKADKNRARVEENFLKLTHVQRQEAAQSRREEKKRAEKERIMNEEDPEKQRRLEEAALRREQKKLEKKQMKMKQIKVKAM
# T5: DsRed2-CCDC47ΔCC^MYC (human) (UniProt Q96A33)
# T5 sequence: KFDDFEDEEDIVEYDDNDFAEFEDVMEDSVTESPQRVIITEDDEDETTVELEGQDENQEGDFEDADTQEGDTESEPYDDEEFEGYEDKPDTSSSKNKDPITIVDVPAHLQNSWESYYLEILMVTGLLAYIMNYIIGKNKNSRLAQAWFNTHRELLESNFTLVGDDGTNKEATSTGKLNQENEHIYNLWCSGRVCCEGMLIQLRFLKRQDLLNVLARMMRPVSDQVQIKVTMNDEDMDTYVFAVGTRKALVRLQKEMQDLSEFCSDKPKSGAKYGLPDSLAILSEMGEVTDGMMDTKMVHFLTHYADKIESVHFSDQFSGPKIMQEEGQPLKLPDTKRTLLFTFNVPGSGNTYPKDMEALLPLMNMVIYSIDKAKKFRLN
# What was measured:
# Experiment in all cases: co-IP
# [1] = target: T1, coiled-coil domain-containing protein 47 (CCDC47), endogenous (human (endogenous in HEK293))
# [2] = target: T2, DsRed2-CCDC47TM^MYC (human)
# [3] = target: T3, DsRed2-CCDC47_(ΔG+ΔCC)^MYC (human)
# [4] = target: T4, DsRed2-CCDC47_(full)^MYC (human)
# [5] = target: T5, DsRed2-CCDC47ΔCC^MYC (human)
# SPCA2C-BirA*HA (mouse) = target: SPCA2C-BirA*HA (mouse)
molecule,measurement,setting,value
SPCA2C-BirA*HA (mouse),binding,[1],binds
SPCA2C^FLAG (mouse),binding,[2],binds
same,binding,[1],binds
same,binding,[3],binds
same,binding,[4],binds
same,binding,[5],binds
"extended synaptotagmin-1 (ESYT1), endogenous (protein, UniProt Q9BSJ8 1-1104) MERSPGEGPSPSPMDQPSAPSDPTDQPPAAHAKPDPGSGGQPAGPGAAGEALAVLTSFGRRLLVLIPVYLAGAVGLSVGFVLFGLALYLGWRRVRDEKERSLRAARQLLDDEEQLTAKTLYMSHRELPAWVSFPDVEKAEWLNKIVAQVWPFLGQYMEKLLAETVAPAVRGSNPHLQTFTFTRVELGEKPLRIIGVKVHPGQRKEQILLDLNISYVGDVQIDVEVKKYFCKAGVKGMQLHGVLRVILEPLIGDLPFVGAVSMFFIRRPTLDINWTGMTNLLDIPGLSSLSDTMIMDSIAAFLVLPNRLLVPLVPDLQDVAQLRSPLPRGIIRIHLLAARGLSSKDKYVKGLIEGKSDPYALVRLGTQTFCSRVIDEELNPQWGETYEVMVHEVPGQEIEVEVFDKDPDKDDFLGRMKLDVGKVLQASVLDDWFPLQGGQGQVHLRLEWLSLLSDAEKLEQVLQWNWGVSSRPDPPSAAILVVYLDRAQDLPLKKGNKEPNPMVQLSIQDVTQESKAVYSTNCPVWEEAFRFFLQDPQSQELDVQVKDDSRALTLGALTLPLARLLTAPELILDQWFQLSSSGPNSRLYMKLVMRILYLDSSEICFPTVPGCPGAWDVDSENPQRGSSVDAPPRPCHTTPDSQFGTEHVLRIHVLEAQDLIAKDRFLGGLVKGKSDPYVKLKLAGRSFRSHVVREDLNPRWNEVFEVIVTSVPGQELEVEVFDKDLDKDDFLGRCKVRLTTVLNSGFLDEWLTLEDVPSGRLHLRLERLTPRPTAAELEEVLQVNSLIQTQKSAELAAALLSIYMERAEDLPLRKGTKHLSPYATLTVGDSSHKTKTISQTSAPVWDESASFLIRKPHTESLELQVRGEGTGVLGSLSLPLSELLVADQLCLDRWFTLSSGQGQVLLRAQLGILVSQHSGVEAHSHSYSHSSSSLSEEPELSGGPPHITSSAPELRQRLTHVDSPLEAPAGPLGQVKLTLWYYSEERKLVSIVHGCRSLRQNGRDPPDPYVSLLLLPDKNRGTKRRTSQKKRTLSPEFNERFEWELPLDEAQRRKLDVSVKSNSSFMSRERELLGKVQLDLAETDLSQGVARWYDLMDNKDKGSS",binding,SPCA2C-BirA*HA (mouse),binds weakly
